Measurements published in patent US20130064913A1, “ANTI-INFLAMMATORY BOTANICAL PRODUCTS FOR THE TREATMENT OF METABOLIC SYNDROME AND DIABETES” (Metaproteomics, LLC, priority 2001, published 2013).
At least one compound was matched to its structure with a doubt left.

System: PGE2 synthesis in LPS-stimulated RAW 264.7 cells
Experiment: PGE2 inhibition in LPS-stimulated RAW 264.7 murine macrophages (Example 1)
Type: cell-based

SMILES: O=c1c(O)c(-c2ccc(O)cc2)oc2cc(O)cc(O)c12 [Keampferol, keampferol]
- Relative Potency: Intermediate
